Percent effect of library compounds

By UniProt entry, the sequences of proteins in these tests, tags left out. Residues count along the entry.
UniProt Q4DA54, 1-478: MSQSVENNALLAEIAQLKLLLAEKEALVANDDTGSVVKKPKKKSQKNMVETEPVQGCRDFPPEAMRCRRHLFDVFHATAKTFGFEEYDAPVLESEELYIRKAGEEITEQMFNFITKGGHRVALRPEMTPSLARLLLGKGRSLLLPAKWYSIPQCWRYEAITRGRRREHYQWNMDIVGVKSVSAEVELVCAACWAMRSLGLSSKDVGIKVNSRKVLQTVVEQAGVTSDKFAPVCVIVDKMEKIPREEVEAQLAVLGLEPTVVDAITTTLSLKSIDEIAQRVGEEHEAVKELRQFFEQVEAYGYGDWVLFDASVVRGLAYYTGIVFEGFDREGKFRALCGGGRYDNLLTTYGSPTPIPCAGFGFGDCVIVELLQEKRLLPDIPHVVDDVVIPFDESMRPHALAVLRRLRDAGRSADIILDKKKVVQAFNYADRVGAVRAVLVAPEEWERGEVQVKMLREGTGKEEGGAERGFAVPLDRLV
UniProt A4I591, 1-473: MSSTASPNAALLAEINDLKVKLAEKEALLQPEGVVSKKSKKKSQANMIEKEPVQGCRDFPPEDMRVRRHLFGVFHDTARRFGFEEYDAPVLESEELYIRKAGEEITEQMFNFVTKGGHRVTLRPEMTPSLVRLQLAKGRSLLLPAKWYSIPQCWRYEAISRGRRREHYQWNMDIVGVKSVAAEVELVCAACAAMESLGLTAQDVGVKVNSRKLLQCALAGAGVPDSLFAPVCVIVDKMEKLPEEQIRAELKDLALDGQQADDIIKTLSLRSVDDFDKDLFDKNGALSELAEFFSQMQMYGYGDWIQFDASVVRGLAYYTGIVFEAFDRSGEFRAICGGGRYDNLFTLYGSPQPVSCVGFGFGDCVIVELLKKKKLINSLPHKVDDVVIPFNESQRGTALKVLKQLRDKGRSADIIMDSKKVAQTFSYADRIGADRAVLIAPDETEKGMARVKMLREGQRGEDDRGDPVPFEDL
UniProt Q8IDJ8, 1-583: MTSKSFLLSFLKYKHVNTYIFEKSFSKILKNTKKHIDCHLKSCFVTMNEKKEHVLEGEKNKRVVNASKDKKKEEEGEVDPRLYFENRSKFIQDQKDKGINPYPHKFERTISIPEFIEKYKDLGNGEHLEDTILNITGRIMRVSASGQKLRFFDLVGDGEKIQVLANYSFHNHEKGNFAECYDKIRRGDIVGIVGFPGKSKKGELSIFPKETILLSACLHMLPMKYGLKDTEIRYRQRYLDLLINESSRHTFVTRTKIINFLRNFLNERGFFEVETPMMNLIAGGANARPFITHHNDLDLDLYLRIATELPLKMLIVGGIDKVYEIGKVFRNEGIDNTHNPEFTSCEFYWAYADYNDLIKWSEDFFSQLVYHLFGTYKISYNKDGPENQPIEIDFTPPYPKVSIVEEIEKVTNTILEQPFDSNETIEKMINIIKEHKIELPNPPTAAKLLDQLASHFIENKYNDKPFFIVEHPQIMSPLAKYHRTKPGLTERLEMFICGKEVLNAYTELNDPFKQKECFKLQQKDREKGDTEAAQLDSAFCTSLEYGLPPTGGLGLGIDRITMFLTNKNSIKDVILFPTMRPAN

The values are deposited in ChEMBL (CHEMBL3988442, “University of Dundee, Small-Polar-MMV Screening Library” (2021)).

TcHisRS: 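Histidine-tRNA ligase, Trypanosoma cruzi CL Brener (UniProt Q4DA54). Enzyme assay of histidyl-tRNA synthetase; the read-out is not stated. Concentration: 30 µM. Direction is inferred from retests: higher values go with stronger inhibition. Size under these conditions: about 69,000 compounds, about 31 of them at 50% or above in at least one test.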
LiHisRS: 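Histidine-tRNA ligase, Leishmania infantum (UniProt A4I591). Enzyme assay of histidyl-tRNA synthetase; the read-out is not stated. Concentration: 30 µM. Higher reads as stronger inhibition (inferred: compounds with an IC50 in retests scored well above the rest). The assay is labelled LdHisRS but filed under L. infantum. About 69,000 compounds were tested under these conditions; 0.6% (about 410) showed 50% or more at least once.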
PfKRS1: 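Enzyme assay of the cytosolic lysyl-tRNA synthetase in 384-well plates, read by luminescence. Target: Lysine-tRNA ligase, Plasmodium falciparum 3D7 (UniProt Q8IDJ8). Concentration: 30 µM. Direction is inferred from only a few compounds that gave an IC50; most scored high, so higher reads as stronger inhibition. About 69,000 compounds were tested under these conditions; 0.071% (about 49) showed 50% or more at least once.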

Values are the deposited “Percent Effect”, in %.
The record does not define 0% and 100%; most values in the screen are far below 50% and negative numbers occur (in some assays of this library far below -100).
This is an unselected part of the compounds tested.

SMILES: COC(=O)c1cc(C2CC2)nc2c(Cl)cnn12
TcHisRS: 0.4425
LiHisRS: -30.97
PfKRS1: -2.556

SMILES: Cc1nc2ccccc2nc1CN1CCCCC1Cn1cccn1 (centres undefined)
TcHisRS: 5.882
LiHisRS: 11.57
PfKRS1: 8.021

SMILES: CC(=O)N1CCC(Oc2ccc(Cl)cc2C(=O)N2CCCO2)CC1
TcHisRS: 7.065
LiHisRS: 0
PfKRS1: 3.179

SMILES: CCN(CC)c1ccc(C2C3=C(COC3=O)Nc3[nH]nc(C)c32)cc1 (centres undefined)
TcHisRS: 3.409
LiHisRS: -3.333
PfKRS1: -0.5434

SMILES: Cc1n[nH]cc1C(=O)N1CCCC(n2nnc3cc(F)ccc32)C1 (centres undefined)
TcHisRS: -0.5464
LiHisRS: 12.41
PfKRS1: -1.013

SMILES: CC1CNC(=O)CCN1Cc1cc(O)c2cccc(F)c2n1 (centres undefined)
TcHisRS: 4.04
LiHisRS: 13.11
PfKRS1: 5.824

SMILES: Cc1nn2c(-c3snnc3C)nnc2s1
TcHisRS: -25.39
LiHisRS: -57.3
PfKRS1: 1.938

SMILES: Cc1ccc2cc(C(=O)NCCn3nc4ccccn4c3=O)[nH]c2c1
TcHisRS: 3.053
LiHisRS: -4.255
PfKRS1: -2.157

SMILES: CC(=O)N1CC[C@H]2OCC[C@@]2(C(=O)NCc2cnc(C)cn2)C1
TcHisRS: 6.349
LiHisRS: 11.82
PfKRS1: 4.852

SMILES: Cc1cc(F)c2c(c1)CCCN2C(=O)c1cncc(Br)c1
TcHisRS: 6.173
LiHisRS: 21.51
PfKRS1: 3.78

SMILES: CCC(CC)(CNC(=O)OC(C)(C)C)NC(=O)C1CCOCC1
TcHisRS: 7.229
LiHisRS: 16
PfKRS1: 4.799

SMILES: CSc1nc2ccsc2c(=O)n1CC(=O)NC1CCCCC1
TcHisRS: 4.386
LiHisRS: 21.43
PfKRS1: 2.734

SMILES: CSCCCNc1nccc(-c2cc(C(=O)O)ccn2)n1
TcHisRS: 0.5236
LiHisRS: 5.376
PfKRS1: -0.962

SMILES: COc1cc(CN(C)C(=O)NC2CC2)ccc1SC
TcHisRS: 1.087
LiHisRS: 6.061
PfKRS1: 1.764

SMILES: CC(C)c1nc2cc(NC(=O)c3n[nH]c4c3CCC4)ccc2n1C
TcHisRS: 4.124
LiHisRS: -47.25
PfKRS1: -1.765

SMILES: CCn1cnnc1CNC(=O)c1cc(Cl)ccc1OC
TcHisRS: 2.632
LiHisRS: 21.62
PfKRS1: -3.049

SMILES: Nc1cc(CCC2CN(Cc3ccc4c(c3)OCCO4)CCO2)ccn1 (centres undefined)
TcHisRS: 12.09
LiHisRS: 10.14
PfKRS1: 2.521

SMILES: O=C(c1cnc(C2CC2)nc1)N1CCC(N2CCC(O)CC2)CC1
TcHisRS: 4.712
LiHisRS: 0
PfKRS1: -1.186

SMILES: CNC(=O)C(C)(C)N1CCC[C@H]1C(=O)NC1CCCC1
TcHisRS: -1.98
LiHisRS: 11.11
PfKRS1: 3.315

SMILES: COc1cc(N2CC[C@@H](OC)[C@@H]2Cc2cnn(C)c2)ncn1
TcHisRS: 3.365
LiHisRS: 24.77
PfKRS1: -0.01216

SMILES: COc1ccc(-c2noc([C@@H](C)NS(=O)(=O)CC(C)C)c2C(=O)O)cc1
TcHisRS: 4.348
LiHisRS: 25.68
PfKRS1: 3.909

SMILES: CC(c1ccccc1F)N(C(=O)CSCC(N)=O)C1CC1 (centres undefined)
TcHisRS: -0.5587
LiHisRS: 15.79
PfKRS1: 0.04532

SMILES: CS(=O)(=O)NCc1cnc2n1CCN(Cc1ccsc1)CC2
TcHisRS: 6.612
LiHisRS: 11.43
PfKRS1: 4.654

SMILES: CSCC[C@H](NC(C)=O)C(=O)N(C)Cc1ccc(-n2cccn2)cc1
TcHisRS: 3.704
LiHisRS: 11.76
PfKRS1: 2.102

SMILES: Cc1cnn(C2CCCN(C(=O)CCc3c(C)noc3C)C2)c1 (centres undefined)
TcHisRS: 5.814
LiHisRS: 10.71
PfKRS1: 1.804

SMILES: COc1cccc(OC)c1CC(=O)NC(C#N)c1ccsc1 (centres undefined)
TcHisRS: 2.212
LiHisRS: 15.04
PfKRS1: 4.236

SMILES: Cc1ncc2c(n1)CN(CC(=O)NCCOc1ccccc1)CC2
TcHisRS: 10.4
LiHisRS: 23.68
PfKRS1: 1.27

SMILES: CC(C)Oc1ccc(Cl)c(C(=O)N2CCN(CCO)CC2)n1
TcHisRS: 3.448
LiHisRS: 10.43
PfKRS1: -0.8151

SMILES: CN(C)c1cccc(C(=O)N2CCc3ccc(=O)[nH]c3CC2)c1
TcHisRS: 2.941
LiHisRS: 10.92
PfKRS1: 8.378

SMILES: CCOc1ncccc1C(=O)N1CCCCC1c1nccs1 (centres undefined)
TcHisRS: 4.511
LiHisRS: 42.86
PfKRS1: -2.914

Repeated from the top, 3 entries:

SMILES	TcHisRS	LiHisRS	PfKRS1
COC(=O)c1cc(C2CC2)nc2c(Cl)cnn12	0.4425	-30.97	-2.556
Cc1nc2ccccc2nc1CN1CCCCC1Cn1cccn1 (centres undefined)	5.882	11.57	8.021
CC(=O)N1CCC(Oc2ccc(Cl)cc2C(=O)N2CCCO2)CC1	7.065	0	3.179